PubChem BioAssay AID1159584, Peter MacCallum Cancer Centre | 2016
Assay: 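Genes whose loss is lethal only together with E-cadherin loss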 (primary screen). Cell system: human MCF10A breast epithelial cells, parental and CDH1-null. Knock-down reagent: siRNA against human genes. Detection: 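Cell viability by CellTiter-Glo ATP luminescence, each line scaled to the mean of mock wells across plates, then CDH1-null over parental ratio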. Direction: CDH1-null / parental viability ratio: higher = CDH1-null cells survive relatively better than parental; CDH1-null viability vs mock: higher = more viable CDH1-null cells. Units: CDH1-null viability vs mock in fraction of mock.
Here is one part, drawn at random, of about 18,000 reagents tested. Further read-outs or replicates are left out here. The record does not give: the amount of reagent, the time to read-out.

SLC52A3
- CDH1-null / parental viability ratio: 1.15
- CDH1-null viability vs mock: 0.69

P4HA3
- CDH1-null / parental viability ratio: 1.31
- CDH1-null viability vs mock: 0.89

ADRA2B
- CDH1-null / parental viability ratio: 1.28
- CDH1-null viability vs mock: 0.82

MRTFB
- CDH1-null / parental viability ratio: 1.08
- CDH1-null viability vs mock: 1.06

YEATS4
- CDH1-null / parental viability ratio: 0.78
- CDH1-null viability vs mock: 0.78

SLC7A14
- CDH1-null / parental viability ratio: 1.05
- CDH1-null viability vs mock: 0.8

ZNF774
- CDH1-null / parental viability ratio: 0.84
- CDH1-null viability vs mock: 0.93

H3-3A
- CDH1-null / parental viability ratio: 1.24
- CDH1-null viability vs mock: 0.87

KRTAP20-2
- CDH1-null / parental viability ratio: 0.81
- CDH1-null viability vs mock: 0.35

TEX12
- CDH1-null / parental viability ratio: 1.06
- CDH1-null viability vs mock: 0.72

BLVRA
- CDH1-null / parental viability ratio: 0.91
- CDH1-null viability vs mock: 0.94

KCNK5
- CDH1-null / parental viability ratio: 1.26
- CDH1-null viability vs mock: 0.96

PPTC7
- CDH1-null / parental viability ratio: 1.16
- CDH1-null viability vs mock: 0.86

PUS3
- CDH1-null / parental viability ratio: 0.99
- CDH1-null viability vs mock: 0.7

Continued; the last 2 above are carried over.
PPTC7
- CDH1-null / parental viability ratio: 1.16
- CDH1-null viability vs mock: 0.86

PUS3
- CDH1-null / parental viability ratio: 0.99
- CDH1-null viability vs mock: 0.7

REP15
- CDH1-null / parental viability ratio: 1.59
- CDH1-null viability vs mock: 0.94

PSMD12
- CDH1-null / parental viability ratio: 1.2
- CDH1-null viability vs mock: 0.6

LIPF
- CDH1-null / parental viability ratio: 1.07
- CDH1-null viability vs mock: 1.16

VSIG4
- CDH1-null / parental viability ratio: 0.79
- CDH1-null viability vs mock: 0.6

KIAA1586
- CDH1-null / parental viability ratio: 1.22
- CDH1-null viability vs mock: 0.94

TNMD
- CDH1-null / parental viability ratio: 1.07
- CDH1-null viability vs mock: 0.8

POU3F4
- CDH1-null / parental viability ratio: 0.89
- CDH1-null viability vs mock: 0.39

KLF7
- CDH1-null / parental viability ratio: 0.9
- CDH1-null viability vs mock: 0.7

NR1I2
- CDH1-null / parental viability ratio: 0.8
- CDH1-null viability vs mock: 0.72

CLPTM1
- CDH1-null / parental viability ratio: 1.13
- CDH1-null viability vs mock: 1.02
